The results in this text go back to paper PMC10699557, “A recombinant approach for stapled peptide discovery yields inhibitors of the RAD51 recombinase” (Chemical Science, 2023).

The chains behind the UniProt entries cited, without tags or fusion partners.
UniProt Q06609, whole entry: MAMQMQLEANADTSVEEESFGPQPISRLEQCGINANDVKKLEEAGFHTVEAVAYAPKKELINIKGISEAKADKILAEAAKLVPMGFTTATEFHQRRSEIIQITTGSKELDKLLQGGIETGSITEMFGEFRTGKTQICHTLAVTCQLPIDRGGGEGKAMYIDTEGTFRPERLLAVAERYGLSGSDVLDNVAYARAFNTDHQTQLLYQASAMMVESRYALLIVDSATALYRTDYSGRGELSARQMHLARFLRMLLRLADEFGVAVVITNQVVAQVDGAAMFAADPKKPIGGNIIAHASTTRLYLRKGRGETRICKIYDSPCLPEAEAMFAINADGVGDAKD

For at least one entry, the source does not settle the construct or the ends of the probe. A weaker result is weaker than the reference pair of the same experiment. At least one verdict was read from the data and is not stated in words by the source.

The target in this data set is RAD51 (full-length human, HsRAD51) (Homo sapiens) (UniProt Q06609). The experiment in a line: EMSA. The following applies: 1 mM ATP, 50 mM HEPES pH 7.4, 150 mM NaCl, 10 mM MgAc2, 2 mM CaCl2, 1 mM TCEP, RAD51 with peptide 10 min at room temperature, then DNA 10 min at 37 C, recombinant protein.

Consider “TTTTTTTTTTTTTTTTTTTTTTTTTTTTTTTTTTTTTTTTTTTTTTTTTTTTTTTTTTTT [FAM-dT60]”, for which the binding result reads like this: (5 uM RAD51, 100 nM DNA, 10 mM Mg acetate, 2 mM CaCl2, no peptide, residues 1-339, single-stranded DNA) “binds”; (stapled BRC8-2 peptide SP2 (DVT staple), varying concentrations, depolymerises RAD51 from ssDNA, residues 1-339, single-stranded DNA) “binds more weakly”; (stapled BRC8-2 peptide SP24 (DVP staple), varying concentrations, depolymerises RAD51 from ssDNA, residues 1-339, single-stranded DNA) “binds more weakly”; (stapled BRC8-2 peptide SP30 (DVP staple), varying concentrations, depolymerises RAD51 from ssDNA, residues 1-339, single-stranded DNA) “binds more weakly”.
